From patent publication US6582718B2, “Cyclosporin compositions” (Novartis AG, priority 1992, dated 2003)
The name of at least one read-out is uncertain.

Experiment: Solubilizing effect of surfactants for cyclosporin in eye-drops
Assay type: physicochemical
Conditions: used for the preparation of eye-drops

polysorbate 80
solubilizing effect for cyclosporin: poor solubilizing effect
